No constants are given. Whether binding was seen depends on the method and setting. Where a sequence is shown, tags or fusion partners need not be part of it.
Biological target: T1, GST-tagged mouse Dna2 OB (residues 21–122) (mouse) (UniProt Q6ZQJ5)
T1 sequence: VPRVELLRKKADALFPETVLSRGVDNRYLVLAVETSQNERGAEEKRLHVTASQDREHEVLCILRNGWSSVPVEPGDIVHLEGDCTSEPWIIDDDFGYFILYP
Test: pull-down; GST pull-down as a1 with (dT)24 or (dT)8 ssDNA added; concentrations shown in the figure; bound Rpa70 quantified relative to the lane without DNA; both purified

Chains of the proteins cited; added tags and fusions are not shown. Residues count along the entry.
UniProt Q8VEE4, residues 191-431: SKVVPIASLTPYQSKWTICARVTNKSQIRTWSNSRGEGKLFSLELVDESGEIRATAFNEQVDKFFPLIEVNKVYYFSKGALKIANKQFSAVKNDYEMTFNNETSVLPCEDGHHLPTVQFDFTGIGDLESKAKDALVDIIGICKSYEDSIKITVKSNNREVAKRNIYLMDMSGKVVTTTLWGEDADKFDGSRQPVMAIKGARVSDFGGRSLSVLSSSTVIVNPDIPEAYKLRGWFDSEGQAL

## mouse Rpa70AB (residues 191–431) (from UniProt Q8VEE4 191-431) (domain or fragment)
  binding: no binding (condition: with (dT)8 ssDNA)

Reference: paper PMC4716839
